In article PMC5969521, “Actin-related proteins regulate the RSC chromatin remodeler by weakening intramolecular interactions of the Sth1 ATPase” (Communications Biology, 2018):
These are yes or no findings as the source states them, for the method shown. Some results given as binding are weak or reduced against the parent protein; the word gives no strength. One block for each molecule: values may come before it.

Sequences of proteins named here, by UniProt entry; tags and fusion partners are left off. Residues count along the entry.
UniProt Q05123: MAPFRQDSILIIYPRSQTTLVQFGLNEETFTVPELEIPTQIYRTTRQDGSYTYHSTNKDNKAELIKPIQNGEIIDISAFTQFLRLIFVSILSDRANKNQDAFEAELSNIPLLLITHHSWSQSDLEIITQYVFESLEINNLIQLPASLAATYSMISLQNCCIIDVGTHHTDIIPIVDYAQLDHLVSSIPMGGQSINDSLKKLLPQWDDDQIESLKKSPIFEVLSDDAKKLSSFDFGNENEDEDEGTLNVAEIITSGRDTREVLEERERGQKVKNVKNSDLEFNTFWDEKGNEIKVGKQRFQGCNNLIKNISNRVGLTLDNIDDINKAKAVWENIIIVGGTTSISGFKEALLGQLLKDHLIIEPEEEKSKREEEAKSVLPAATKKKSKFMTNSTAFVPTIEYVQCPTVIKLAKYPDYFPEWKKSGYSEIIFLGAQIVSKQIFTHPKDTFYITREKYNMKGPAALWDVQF
UniProt P32597, residues 388-1097: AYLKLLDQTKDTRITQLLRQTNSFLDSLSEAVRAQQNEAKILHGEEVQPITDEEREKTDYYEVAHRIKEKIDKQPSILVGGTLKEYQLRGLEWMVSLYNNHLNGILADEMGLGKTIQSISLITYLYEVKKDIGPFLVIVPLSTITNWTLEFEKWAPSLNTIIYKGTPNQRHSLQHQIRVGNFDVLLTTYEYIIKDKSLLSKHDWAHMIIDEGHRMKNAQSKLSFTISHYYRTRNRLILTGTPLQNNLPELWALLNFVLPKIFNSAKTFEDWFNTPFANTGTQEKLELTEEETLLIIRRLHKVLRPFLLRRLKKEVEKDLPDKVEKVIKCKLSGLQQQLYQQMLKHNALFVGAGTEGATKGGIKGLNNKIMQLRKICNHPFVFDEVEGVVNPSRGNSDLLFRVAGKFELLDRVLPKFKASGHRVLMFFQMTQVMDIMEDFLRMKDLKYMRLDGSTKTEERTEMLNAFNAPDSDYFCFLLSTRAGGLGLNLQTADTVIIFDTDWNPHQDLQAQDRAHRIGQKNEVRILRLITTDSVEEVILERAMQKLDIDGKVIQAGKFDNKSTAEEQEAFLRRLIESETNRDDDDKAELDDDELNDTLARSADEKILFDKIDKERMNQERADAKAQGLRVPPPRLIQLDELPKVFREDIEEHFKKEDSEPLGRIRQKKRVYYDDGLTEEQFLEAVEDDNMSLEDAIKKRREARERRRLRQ
UniProt Q12406: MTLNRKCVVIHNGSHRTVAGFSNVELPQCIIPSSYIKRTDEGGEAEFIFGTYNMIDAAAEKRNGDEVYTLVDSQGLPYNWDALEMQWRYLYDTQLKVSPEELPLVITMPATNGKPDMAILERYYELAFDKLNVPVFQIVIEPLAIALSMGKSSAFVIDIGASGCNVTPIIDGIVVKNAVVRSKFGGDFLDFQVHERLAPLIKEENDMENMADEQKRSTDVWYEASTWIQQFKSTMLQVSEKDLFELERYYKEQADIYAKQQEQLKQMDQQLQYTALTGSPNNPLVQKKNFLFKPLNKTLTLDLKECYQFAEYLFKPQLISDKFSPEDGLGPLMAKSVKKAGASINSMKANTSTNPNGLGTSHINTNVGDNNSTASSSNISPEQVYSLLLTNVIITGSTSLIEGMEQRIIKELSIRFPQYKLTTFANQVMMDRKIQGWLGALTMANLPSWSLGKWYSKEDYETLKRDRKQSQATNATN

How the values were obtained:
Arp9 (budding yeast) = Arp9 (budding yeast) (UniProt Q05123); assay: crystal structure; Rtt102-Arp7/9 at 10 mg/mL incubated with 1 mM ATP; 20% PEG 3350, ammonium sulfate, 16 °C; 3.25 Å, two copies of the complex in the P1 cell; both purified
[1] = target: Sth1_(388–1097) (budding yeast) (UniProt P32597); assay: SEC-MALS; Sth1_(388–1097) (100 μM for the sample with DNA) with or without the 20-bp DNA duplex; TSKgel SuperSW2000 column, DAWN HELEOS MALS detector; both purified

binding (Arp9 (budding yeast)): binds
Molecule: Arp7 (from UniProt Q12406 1-477)

binding [1]: no binding
Molecule: Sth1_(388–1097) (from UniProt P32597 388-1097) (domain or fragment)

binding (Arp9 (budding yeast)): binds
B1: Rtt102 (protein, UniProt P53330 1-157)
chain: MDPQTLITKANKVSYYGNPTSKESWRYDWYQPSKVSSNVQQPQQQLGDMENNLEKYPFRYKTWLRNQEDEKNLQRESCEDILDLKEFDRRILKKSLMTSHTKGDTSKATGAPSANQGDEALSVDDIRGAVGNSEAIPGLSAGVNNDNTKESKDVKMN
